{
  "source": "patent US20200237766A1",
  "about": "“PKM2 ACTIVATORS IN COMBINATION WITH REACTIVE OXYGEN SPECIES FOR TREATMENT OF CANCER” (TOLERO PHARMACEUTICALS, INC., priority 2017, published 2020)",
  "key": {"Panc1 cells": {"test_system": "Panc1 cells", "experiment": "Cell-titer-Glo cell viability, Panc1 cells", "type": "cell-based", "details": "Compound 91 at 4 μM", "protocol": "A549 and Pancl cells were plated using 384-well plates at a density of 1,200 cells per well. Cells were plated in RPMI media and allowed to adhere for 24 hours at 37° C. […] Cells were also treated with Compound 91 alone as a control. Cell viability was determined according to the Cell-titer-Glo assay kit and protocol from Promega Biosciences, LLC (Madison, Wis.).\nA549 and Panc1 cells were plated according to the procedure described in Example 1. Cells were treated using a concentration gradient of rapamycin (FIGS. 5A-B) or Vosaroxin (a TOPOII poison; FIG. 5C), both in the presence and absence of Compound 91 at a concentration of 4 μM in replicates of 7 per condition. Cell viability was determined using the Cell-titer-Glo assay kit according to the procedure described in the examples above."}, "A549 cells": {"test_system": "A549 cells", "experiment": "Cell-titer-Glo cell viability, A549 cells", "type": "cell-based, human", "details": "Compound 91 at 4 μM"}},
  "note": "At least one structure is not confirmed: it was looked up by name or label, or the drawing left a doubt.",
  "data": [
    {"smiles": "CO[C@H]1C[C@@H]2CC[C@@H](C)[C@@](O)(O2)C(=O)C(=O)N2CCCC[C@H]2C(=O)O[C@H]([C@H](C)C[C@@H]2CC[C@@H](O)[C@H](OC)C2)CC(=O)[C@H](C)/C=C(\\C)[C@@H](O)[C@@H](OC)C(=O)[C@H](C)C[C@H](C)/C=C/C=C/C=C/1C", "note": "[rapamycin]", "values": [
      {"measurement": "cell viability: activity in presence vs absence of Compound 91", "setting": "Panc1 cells", "result": "no significant change"},
      {"measurement": "cell viability: activity in presence vs absence of Compound 91", "setting": "A549 cells", "result": "no significant change"}
    ]}
  ]
}
